Reference: PubChem BioAssay AID1159578 (Peter MacCallum Cancer Centre, 2015)
Shown is one part, drawn at random, of about 18,000 reagents tested. Of all reagents, about 1,030 (5.7%) are marked active. 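Inactive calls also include pools with fewer than 3300 nuclei, whose migration was not assessed.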 The raw values are shown without normalisation.

- Aim: 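Genome-wide hunt for genes controlling movement of lymphatic endothelial cells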 (primary screen)
- System: human lymphatic endothelial cells
- Reagents: siRNA pool against human genes, 40 nM
- Duration: 48 h after transfection
- Measurement: 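Cells stained with dye and imaged after a scratch; covered wound area and nuclei counted, duplicates averaged, migration set against mock wells and turned into a robust z-score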
- Reading the numbers: migration robust z-score: higher = faster migration into the scratch; migration relative to mock: higher = more scratch area covered than mock; nuclei per well: higher = more cells in the well
- Hit rule: 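Pools averaging fewer than 3300 nuclei are never called; remaining pools count as changed when migration robust z lies outside -2 to 2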
- Calls: active = migration changed; inactive = no migration change, or too few cells

| gene | migration robust z-score | migration class with cell-count check | migration relative to mock | nuclei per well, duplicate mean | Call |
| --- | --- | --- | --- | --- | --- |
| MFAP3L (microfibril associated protein 3 like) | -1.27 | migration z between -2 and 2; enough cells | 0.56 | 5408 | inactive |
| OXA1L (OXA1L mitochondrial inner membrane insertase) | 0.5 | migration z between -2 and 2; enough cells | 1.02 | 5563 | inactive |
| DRD1 (dopamine receptor D1) | -0.62 | migration z between -2 and 2; enough cells | 0.68 | 4956 | inactive |
| FZD9 (frizzled class receptor 9) | -0.08 | migration z between -2 and 2; enough cells | 0.79 | 4958 | inactive |
| DCTN4 (dynactin subunit 4) | -0.6 | migration z between -2 and 2; enough cells | 0.73 | 6291 | inactive |
| ODC1 (ornithine decarboxylase 1) | -0.29 | migration z between -2 and 2; enough cells | 0.75 | 6087 | inactive |
| SPEF1 (sperm flagellar and cilia associated 1) | 1.73 | migration z between -2 and 2; enough cells | 1.34 | 6950 | inactive |
| MARCHF5 (membrane associated ring-CH-type finger 5) | -0.18 | migration z between -2 and 2; enough cells | 0.77 | 5157 | inactive |
| TMEM60 (transmembrane protein 60) | -0.05 | migration z between -2 and 2; enough cells | 0.87 | 5510 | inactive |
| LGALS14 (galectin 14) | -1.38 | migration z between -2 and 2; enough cells | 0.53 | 6527 | inactive |
| NLRC3 (NLR family CARD domain containing 3) | 0.19 | migration z between -2 and 2; enough cells | 0.94 | 6284 | inactive |
| LRRC43 (leucine rich repeat containing 43) | 0.18 | migration z between -2 and 2; enough cells | 0.92 | 6508 | inactive |
| DTX2 (deltex E3 ubiquitin ligase 2) | -0.1 | migration z between -2 and 2; enough cells | 0.78 | 5074 | inactive |
| NHLRC1 (NHL repeat containing E3 ubiquitin protein ligase 1) | 0.78 | migration z between -2 and 2; enough cells | 0.96 | 6742 | inactive |
| AIRIM (AFG2 interacting ribosome maturation factor) | 0.25 | migration z between -2 and 2; enough cells | 0.95 | 7098 | inactive |
| BDNF (brain derived neurotrophic factor) | 0.13 | migration z between -2 and 2; enough cells | 0.83 | 6392 | inactive |
| SLA (Src like adaptor) | -0.19 | migration z between -2 and 2; enough cells | 0.84 | 6296 | inactive |
| GTPBP3 (GTP binding protein 3, mitochondrial) | -0.88 | migration z between -2 and 2; enough cells | 0.66 | 5381 | inactive |
| LEAP2 (liver enriched antimicrobial peptide 2) | -1.77 | migration z between -2 and 2; enough cells | 0.43 | 5392 | inactive |
| COX16 (cytochrome c oxidase assembly factor COX16) | 0.94 | migration z between -2 and 2; enough cells | 1.12 | 5009 | inactive |
| EPB41L4B (erythrocyte membrane protein band 4.1 like 4B) | 0.86 | migration z between -2 and 2; enough cells | 1.1 | 5520 | inactive |
| FGF21 (fibroblast growth factor 21) | 1.48 | migration z between -2 and 2; enough cells | 1.09 | 5976 | inactive |
| TMPRSS11E (transmembrane serine protease 11E) | 0.31 | migration z between -2 and 2; enough cells | 0.86 | 4728 | inactive |

An excerpt from above, limited to “migration relative to mock”.
FGF21 (fibroblast growth factor 21)	1.09
TMPRSS11E (transmembrane serine protease 11E)	0.86
